Among the data in article PMC7819943, “Rice protein-binding microarrays: a tool to detect cis-acting elements near promoter regions in rice” are binding signal values, retold here.

This is one part of the list.

The target in this assay is T1, OsSMF1 (Oryza sativa, UniProt Q6ZLB0 1-436).
T1 sequence: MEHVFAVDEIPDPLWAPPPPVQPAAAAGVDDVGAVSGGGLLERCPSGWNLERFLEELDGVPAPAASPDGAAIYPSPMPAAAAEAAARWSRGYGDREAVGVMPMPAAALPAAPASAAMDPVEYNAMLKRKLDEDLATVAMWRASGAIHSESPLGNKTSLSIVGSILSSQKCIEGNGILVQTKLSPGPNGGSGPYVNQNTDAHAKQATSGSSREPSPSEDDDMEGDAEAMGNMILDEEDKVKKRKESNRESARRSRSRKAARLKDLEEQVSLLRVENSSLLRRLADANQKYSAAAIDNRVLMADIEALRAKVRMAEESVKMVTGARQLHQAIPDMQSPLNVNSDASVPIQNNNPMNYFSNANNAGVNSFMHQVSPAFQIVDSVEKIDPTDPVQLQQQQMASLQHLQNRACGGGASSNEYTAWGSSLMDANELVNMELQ
Put plainly: protein-binding microarray (RPBM); PBS, 2% BSA, 51.3 ng/ul salmon testes DNA, 50 uM zinc acetate, 200 nM TF, 25 C, 1 h; high values mean tight binding. The note with it: protein: recombinant; tags: N-terminal polyhistidine and DsRed monomer fusion (pET32a); chain copies: 2; label: CyDye5-dUTP incorporated in the synthesized complementary strand; 3' TTTTT single-stranded linker to array surface; dsDNA, one strand shown. In a few lines:
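Binding signal here means per-feature fluorescence intensity in arbitrary units. The values were read on an Axon 4000B scanner after a custom Agilent array, double-stranded by primer extension with Cy5-dUTP, was incubated with 200 nM protein at 25 °C for 1 h in PBS with 2% BSA, salmon testes DNA and 50 µM zinc acetate, then washed. The proteins were transcription factors with an N-terminal polyhistidine tag and DsRed, expressed in E. coli BL21-CodonPlus and purified on Ni–NTA.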
With “GAGTCGTCGCCGAGGCGGCCGCCCGCGATGACGATGCGACCGGAGTCACCTAGTGCAG”, the binding signal is 3750 fluorescence intensity (a.u.).
In the case of “TGGGGTTCACATTTAAATTGTTGATGACCTGTATTCTCATCGGAGTCACCTAGTGCAG”, the binding signal is 3660 fluorescence intensity (a.u.).
For the sequence “CGGGGAGGGCCTACCTACACAAGTAGGAGTAGGCATGTTGCGGAGTCACCTAGTGCAG”, the binding signal was 3970 fluorescence intensity (a.u.).
Then “GTGGGTAGCCATGGCGCCGCCCATGTCGTGCTCAGCAATTCGGAGTCACCTAGTGCAG”, with 3370 fluorescence intensity (a.u.); and “CAACTACCAAACTGTCACAACATGACGCAGCAACCAAACCCGGAGTCACCTAGTGCAG”, with 5080 fluorescence intensity (a.u.).
Then “ACCTAGCTAACTGACTGAGATGTGACATGCTACTAGGAGTCGGAGTCACCTAGTGCAG”, with 3200 fluorescence intensity (a.u.); and “GCTGTGGCGCCCTCGTGTCGCCACGACACCACTCTCACCGCGGAGTCACCTAGTGCAG”, with 7950 fluorescence intensity (a.u.); and “GATTCGAGATTCAGGTAGGTTGTATAGTTCACGGGAGCAACGGAGTCACCTAGTGCAG”, with 64500 fluorescence intensity (a.u.).
In the case of “TATGTTGCCTTCTTCTGCCTTATCAAGTCACATTATATTGCGGAGTCACCTAGTGCAG”, the binding signal was 4660 fluorescence intensity (a.u.).
For “GTTAGCTAGCAAATATTCAGACGCACGCAATGCGTCATGCCGGAGTCACCTAGTGCAG”, the binding signal is 3740 fluorescence intensity (a.u.).
The figure for “GCCTCGTCGACCTCGTCACCTCGCCGTGGCCCGCCCGCGTCGGAGTCACCTAGTGCAG” is 6660 fluorescence intensity (a.u.).
Then “TCCACCTCCGTGCCACCTCATCGCCGGTGCCAACCTCCGGCGGAGTCACCTAGTGCAG”, with 13100 fluorescence intensity (a.u.); and “GGTTTGCTAAAAGTCTTCAGAATTCAGGGCTTATACAAATCGGAGTCACCTAGTGCAG”, with 3160 fluorescence intensity (a.u.); and “GGAAACTGGTGGGGTGGGAGTCGCCACGACACGCGGCGACCGGAGTCACCTAGTGCAG”, with 4220 fluorescence intensity (a.u.).
The figure for “AGCCTGCCTCCATCACGACCACGACGTACTCACAACCTCGCGGAGTCACCTAGTGCAG” is 3500 fluorescence intensity (a.u.); for “GCGAACACTGAGGTGTTGACGTTGCGCTCCGCCTCGCTGTCGGAGTCACCTAGTGCAG” it is 3840 fluorescence intensity (a.u.); for “ACATACAACTATATTGACAAGTGTGCCAACTCAGTGGGTGCGGAGTCACCTAGTGCAG” it is 5670 fluorescence intensity (a.u.).
Take “TACGAAATATGACACATCATTATTTAAATAAATCAATCTCCGGAGTCACCTAGTGCAG”: the binding signal is 7630 fluorescence intensity (a.u.).
On to “CATGTCGATCGCCACCACGCGTGCCACGGCGGCCAAGATGCGGAGTCACCTAGTGCAG”, for which the binding signal is 6840 fluorescence intensity (a.u.).
Then “CACCATGCATAAATCATAATGCTGGACTTTTAGATCTTCGCGGAGTCACCTAGTGCAG”, with 19800 fluorescence intensity (a.u.); and “AAATCCCCGCCGCGCTGACTCCGCCCCGCGATTCCCCGCCCGGAGTCACCTAGTGCAG”, with 5020 fluorescence intensity (a.u.); and “TTAGGTACATAAGGAAATCTGCTGCATTCACGCGTGGCATCGGAGTCACCTAGTGCAG”, with 37500 fluorescence intensity (a.u.).
The figure for “TTCTTCCCGTGCCACGTCCAAGTCACCGCATGATCCATGGCGGAGTCACCTAGTGCAG” is 8040 fluorescence intensity (a.u.); for “TCTTATCAAGACACTCTGACTCACCCACTTCCTAAGCTCTCGGAGTCACCTAGTGCAG” it is 11100 fluorescence intensity (a.u.).
As to “CCGCGTGGGTCCAACTTGCCATGTCAGCCAAAACCAGCCACGGAGTCACCTAGTGCAG”, the binding signal was 6030 fluorescence intensity (a.u.).
The figure for “GGGAGACTGGAGAGGAGGGGAGAGGAGATGGTGGCCTGGCCGGAGTCACCTAGTGCAG” is 26800 fluorescence intensity (a.u.); for “CCGGATGACATGATGACACCGCTACCCATTAAGTTTCGTCCGGAGTCACCTAGTGCAG” it is 4050 fluorescence intensity (a.u.).
The figure for “GGGATGTGACATATTAGGCCATTCCTAACCCAATAATTAGCGGAGTCACCTAGTGCAG” is 3560 fluorescence intensity (a.u.); for “GAGAGAATGAAGCCGGTATATCATCGCTCACAGTGGTTGCCGGAGTCACCTAGTGCAG” it is 3240 fluorescence intensity (a.u.); for “AACTAGCAGATCTACGTAGTTACCGATATCTACAATACGCCGGAGTCACCTAGTGCAG” it is 4010 fluorescence intensity (a.u.).
Then “TGTTGTTCTACATAAACAATGCTGACTACACCAAATCCGACGGAGTCACCTAGTGCAG”, with 4710 fluorescence intensity (a.u.); and “CGGCCAACCGGTGCGGGCTCTGACGCTGAACTCCATCAACCGGAGTCACCTAGTGCAG”, with 3220 fluorescence intensity (a.u.).
Consider “TCGCCTGCGCCTGGCACCGCACACCGCCGACGAGGCCACGCGGAGTCACCTAGTGCAG”, for which the binding signal is 4240 fluorescence intensity (a.u.).
The figure for “GCCAGCCACCGCCACTTCCCCTCGTTGTCTCGCCACCTCCCGGAGTCACCTAGTGCAG” is 3400 fluorescence intensity (a.u.); for “CCTCTTCTGTTCCGACTCCCGTAGGACACTTCAAAATCAACGGAGTCACCTAGTGCAG” it is 13200 fluorescence intensity (a.u.); for “TCTGCAATTTAACACTGACTGACGTGTACCCAGCGAGTAGCGGAGTCACCTAGTGCAG” it is 11800 fluorescence intensity (a.u.).
For the sequence “TCTCCTGCGCCATGCCTATGTCAACCAAGACCGCAGTCCTCGGAGTCACCTAGTGCAG”, the binding signal was 3630 fluorescence intensity (a.u.).
As for “TTGCAGCATCACCTGGCGAGGCGTAGCTAGGAGATGCAGACGGAGTCACCTAGTGCAG”, the binding signal is 40100 fluorescence intensity (a.u.).
Then “GCCGTCGCCATCGCCGTAGCGTCGCCGTCTCCGAGCGCCTCGGAGTCACCTAGTGCAG”, with 3530 fluorescence intensity (a.u.); and “TTGACCTGCTCCCACGTCAGCGTCGGCTCACCCCATCTGCCGGAGTCACCTAGTGCAG”, with 31400 fluorescence intensity (a.u.).
Then “TAGGCAAAGGGAGGCGAGGAGAAATACGGCATGCATGTTGCGGAGTCACCTAGTGCAG”, with 3170 fluorescence intensity (a.u.); and “TTGGTGACTAAGCAGCTAGCTCATATTCCGTTTCAGCTTCCGGAGTCACCTAGTGCAG”, with 6500 fluorescence intensity (a.u.).
